{"source": "PubChem BioAssay AID504444", "about": "(National Center for Advancing Translational Sciences (NCATS), 2011)", "note": "About 7,500 (2.1%) of roughly 360,000 compounds were called active. Inconclusive results, whose numbers are uncertain, are shown with a selection of clear calls. The call rests on the fitted dose curve; in most records, active means well fitted inhibition curve with a large enough effect; inconclusive means small, poorly fitted or top-dose-only effect, or effect the other way; inactive means flat fitted curve, though single readings scatter. Potencies beside an inconclusive call are fits to weak or partial responses and may not hold up. Potency means the concentration at half of the fitted maximal effect."}
{"assay": "Nrf2 qHTS screen for inhibitors; further: nearly all actives have a fitted effect of over 60% in size", "conditions": "A549 ARE-Fluc reporter, luciferase luminescence, 18-24 h; series mostly up to 46 µM", "in_short": "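Reporter: ARE-Fluc in A549. Exposure: 18-24 h, 37 °C, 5% CO2, 5% FBS OPTI-MEM. Readouts: fluorescent cytotoxicity (CellTiter-Fluor), then luminescent Nrf2 signal after BugLite.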"}
{"smiles": "COc1ccc(C(=O)N=C2SC3CS(=O)(=O)CC3N2Cc2ccc(F)cc2)cc1", "note": "(configuration not stated)", "Potency": "inconclusive: 8.2 µM [falling, partial curve]"}
{"smiles": "CCOc1ccc(NC(=O)c2cc(OC)nc3ccccc23)cc1", "Potency": "inconclusive: 5.17 µM [activator, partial curve, poor fit]"}
{"smiles": "COc1ccc(CNC(=O)CCSc2nc(-c3ccc4c(c3)OCO4)cc(C(F)(F)F)n2)cc1", "Potency": "inconclusive: 18.4 µM [falling, single point]"}
{"smiles": "O=C(NC(=S)Nc1ccccc1N1CCCC1)c1ccco1", "Potency": "inactive"}
{"smiles": "COC(=O)c1ccc(COC(=O)c2ccc(CS(=O)(=O)c3ccc(C)cc3)cc2)cc1", "Potency": "inactive"}
{"smiles": "COc1ccccc1C(=O)NNC(=O)c1cccc(C)c1", "Potency": "inconclusive: 5.17 µM [activator, full curve]"}
{"smiles": "CCCCCCCNC(=O)C1(CC2CC(c3ccc(Cl)cc3)=NO2)CCN(C(=O)Cc2ccc(F)cc2)CC1", "note": "(configuration not stated)", "Potency": "inactive"}
{"smiles": "Cc1cc(N(C)/N=C/c2ccccc2)nc(-c2ccccc2O)n1", "Potency": "inconclusive: 2.31 µM [falling, partial curve, poor fit]"}
{"smiles": "COc1ccc(C(=O)NCC2(c3ccccc3)CCCC2)c(OC)c1", "Potency": "inconclusive: 25.9 µM [falling, single point]"}
{"smiles": "O=S(=O)(c1cccc(C(F)(F)F)c1)N1CCN(C(=S)NCc2ccco2)CC1", "Potency": "inconclusive: 23.1 µM [falling, partial curve]"}
{"smiles": "CCOc1ccc(NC(=O)c2ccc3c(c2)CCN3S(=O)(=O)CC)cc1", "Potency": "inconclusive: 20.6 µM [falling, single point]"}
{"smiles": "CCC(C)(C)c1ccc(Oc2ccc(NC(=O)COC(=O)C3=COCCO3)cc2)cc1", "Potency": "active: 8.2 µM"}
{"smiles": "CC(C)(C)OC(=O)NCc1ccc(CNC(=O)c2[nH]cnc2C(=O)N[C@@H](Cc2ccccc2)C(=O)OC(C)(C)C)cc1", "Potency": "active: 23.1 µM"}
{"smiles": "NS(=O)(=O)c1ccc(Sc2nc3ccccc3s2)c([N+](=O)[O-])c1", "Potency": "inconclusive: 10.3 µM [falling, partial curve, poor fit]"}
{"smiles": "C[C@@H]1[C@H](O)C[C@@]23COC(=O)C2=CCCC3[C@@]1(C)CCC1COC(=O)C1", "note": "(some centres not stated)", "Potency": "inactive"}
{"smiles": "COc1ccc(-c2coc3cc4oc(=O)cc(C)c4cc23)cc1F", "Potency": "inconclusive: 11.6 µM [falling, partial curve, poor fit]"}
{"smiles": "CN(C(=O)c1ccc(NC(=O)Cc2ccc([N+](=O)[O-])cc2)cc1)C1CCCC1", "Potency": "inconclusive: 32.6 µM [falling, single point]"}
{"smiles": "O=C1CCC2=C1C1(CCCC1)N=C(Nc1nc3ccccc3o1)N2", "Potency": "inconclusive: 9.2 µM [falling, partial curve]"}
{"smiles": "O=C(Nn1c(Cc2ccccc2)nc2ccccc2c1=O)c1c(O)c2cccc3c2n(c1=O)CCC3", "Potency": "inconclusive: 29.1 µM [falling, single point]"}
{"smiles": "O=C(Nc1ccc(S(=O)(=O)N2CCOCC2)cc1)c1cc([N+](=O)[O-])ccc1Cl", "Potency": "inconclusive: 20.6 µM [activator, partial curve]"}
{"smiles": "Cn1c(C(=O)NCCc2c[nH]c3ccccc23)cc2sccc21", "Potency": "inconclusive: 25.9 µM [activator, partial curve]"}
{"smiles": "Cc1cccc(OCc2nnc(SCC(=O)N3c4ccccc4CCc4ccccc43)o2)c1", "Potency": "inconclusive: 32.6 µM [falling, single point]"}
{"smiles": "CCN1C(=O)[C@H]2[C@@H](c3ccc(-c4ccc5c(c4)OCO5)cc3)N3CCC[C@@]3(C(=O)OC)[C@H]2C1=O", "Potency": "inconclusive: 25.9 µM [falling, partial curve, poor fit]"}
{"smiles": "CC1=C(C(=O)OCc2ccccc2)C(c2ccsc2)C(C#N)=C(N)O1", "note": "(configuration not stated)", "Potency": "inconclusive: 3.26 µM [activator, full curve, poor fit]"}
{"smiles": "CC(=O)NCCc1cc2ccc(C)c(C)c2[nH]c1=O", "Potency": "inconclusive: 0.517 µM [activator, full curve, poor fit]"}
{"smiles": "Cc1cccc(C(=O)Nc2sc3c(c2C#N)CCCCC3)c1", "Potency": "inconclusive: 1.46 µM [activator, partial curve, poor fit]"}
{"smiles": "Cc1ccc(C)c(NC(=S)NC(NC(=O)N(C)C)C(Cl)(Cl)Cl)c1", "note": "(configuration not stated)", "Potency": "inconclusive: 0.731 µM [activator, partial curve, poor fit]"}
{"smiles": "O=C(NCc1nc(-c2ccc(C(F)(F)F)cc2)no1)Nc1ccc(OC(F)(F)F)cc1", "Potency": "inconclusive: 20.6 µM [falling, partial curve, poor fit]"}
{"smiles": "CCCCOC(=O)CSC1=C(C#N)C(c2ccccc2OC)C(C#N)C(=O)N1", "note": "(configuration not stated)", "Potency": "inconclusive: 20.6 µM [falling, partial curve, poor fit]"}
{"smiles": "O=C(Nc1cnc2ccccc2c1)c1cccnc1", "Potency": "inconclusive: 4.61 µM [activator, full curve, poor fit]"}
{"smiles": "Cc1cccc(NC(=S)/N=C(\\N)Nc2nc(C)c3ccccc3n2)c1", "Potency": "inconclusive: 29.1 µM [falling, single point]"}
{"smiles": "COc1ccc2[nH]c3c(c2c1)CCN(C(=O)c1cccc(Cl)c1)C3c1ccc(F)cc1", "note": "(configuration not stated)", "Potency": "inconclusive: 29.1 µM [activator, single point]"}
{"smiles": "O=C(CC1NCCc2ccccc21)Nc1ccccc1", "note": "(configuration not stated)", "Potency": "inconclusive: 16.4 µM [activator, partial curve]"}
{"smiles": "CN1CCN(S(=O)(=O)c2cccs2)CC1", "Potency": "inactive"}
{"smiles": "CCOC(=O)C1CCN(C2=NC(=O)/C(=C/c3ccc(Cl)cc3)S2)CC1", "Potency": "inactive"}
{"smiles": "Cc1ccccc1NS(=O)(=O)c1ccc2[nH]c(=O)[nH]c2c1", "Potency": "inconclusive: 23.1 µM [falling, partial curve, poor fit]"}
{"smiles": "COc1ccc(C2=C(N)c3ccccc3C2=O)cc1", "Potency": "inconclusive: 2.06 µM [activator, partial curve, poor fit]"}
{"smiles": "COc1ccc(N2CCN(C(c3ccccc3)c3nnnn3C(C)C)CC2)cc1", "note": "(configuration not stated)", "Potency": "inactive"}
{"smiles": "O=[N+]([O-])c1ccc(N2CCN(c3ccc(Cl)nn3)CC2)c(Cl)c1", "Potency": "inconclusive: 8.2 µM [falling, partial curve, poor fit]"}
{"smiles": "O=C(OCC(=O)N1CCN(C(=O)c2ccco2)CC1)c1cc(-c2ccc(Cl)c(Cl)c2Cl)nc2ccccc12", "Potency": "inconclusive: 29.1 µM [falling, single point]"}
{"smiles": "Cc1cc(NC(=O)c2ccc3c(c2)OCCO3)ccc1NC(=O)c1cc2ccccc2o1", "Potency": "inconclusive: 23.1 µM [falling, partial curve, poor fit]"}
{"smiles": "COC(=O)c1ccc(C2c3c(oc4ccccc4c3=O)C(=O)N2CCCN2CCOCC2)cc1", "note": "(configuration not stated)", "Potency": "inactive"}
{"smiles": "COc1ccc2c(c1)Cc1sc(NC(C)=O)nc1-2", "Potency": "inconclusive: 29.1 µM [activator, partial curve, poor fit]"}
{"smiles": "COc1cc(OC)c(-c2nn3c(-c4cc(C)[nH]n4)nnc3s2)cc1OC", "Potency": "inconclusive: 2.91 µM [falling, partial curve, poor fit]"}
{"smiles": "CCOC(=O)c1ccc(N=c2sc(C(=O)OC)cc(=O)n2CCCN2CCOCC2)cc1", "Potency": "inconclusive: 29.1 µM [falling, single point]"}
{"smiles": "O=C(/C=C/c1ccc(S(=O)(=O)NCc2ccco2)cc1)NCc1ccccc1Cl", "Potency": "inconclusive: 23.1 µM [falling, single point]"}
{"smiles": "CCc1ccc2[nH]c(=O)c(CN(Cc3ccc4c(c3)OCO4)Cc3nnnn3C3CCCC3)cc2c1", "Potency": "inconclusive: 29.1 µM [falling, single point]"}
{"smiles": "Cc1ccc(C)c(N2CCN(C(=O)c3cc4c(=O)n(Cc5ccccc5)ccc4nc3C)CC2)c1", "Potency": "inconclusive: 29.1 µM [falling, single point]"}
{"smiles": "CCC1CCC(C(=O)NC(C(=O)NCCN2CCOCC2)C(C)C)CC1", "note": "(configuration not stated)", "Potency": "inactive"}
{"smiles": "Cc1cccc(OCCCC(=O)Nc2nccs2)c1", "Potency": "inconclusive: 20.6 µM [falling, single point]"}
{"smiles": "CCOc1ccccc1CNC(=O)C1CCCN(c2ncnc3c2nc2n3CCCCC2)C1", "note": "(configuration not stated)", "Potency": "inconclusive: 20.6 µM [falling, partial curve, poor fit]"}
{"smiles": "CCOC(=O)N1CCN(C(=O)C2CCCN(Cc3nc(-c4ccc(Cl)cc4)oc3C)C2)CC1", "note": "(configuration not stated)", "Potency": "inconclusive: 7.31 µM [falling, partial curve, poor fit]"}
{"smiles": "CCCCN(Cc1cc2cc(OC)ccc2[nH]c1=O)C(=O)COc1ccccc1", "Potency": "inactive"}
{"smiles": "CCOC(=O)c1sc2nc(C)nc(NCc3ccc(F)cc3)c2c1C", "Potency": "inconclusive: 29.1 µM [falling, single point]"}
{"smiles": "Cc1cc(F)ccc1S(=O)(=O)Nc1ccccc1C(=O)Nc1ncn[nH]1", "Potency": "inactive"}
{"smiles": "CCOc1cccc2c1N[C@@H](c1ccc(C(=O)O)cc1)[C@H]1CC=C[C@@H]21", "Potency": "inactive"}
{"smiles": "COc1cc2c(cc1NC(=O)c1cccc(Br)c1)CCCC2", "Potency": "inactive"}
{"smiles": "COC(C(=O)C(O)C(C)O)C1Cc2cc3cc(OC4CC(OC5CC(O)C(O)C(C)O5)C(O)C(C)O4)c(C)c(O)c3c(O)c2C(=O)C1OC1CC(OC2CC(OC3CC(O)C(OC)C(C)O3)C(O)C(C)O2)C(O)C(C)O1", "note": "(configuration not stated)", "Potency": "active: 0.116 µM"}
{"smiles": "N#CC(c1ccc([N+](=O)[O-])cc1)C(CC(=O)c1ccccc1)c1ccccc1", "note": "(configuration not stated)", "Potency": "inconclusive: 29.1 µM [falling, single point]"}
{"smiles": "N#CC1(NC(=O)COc2ccc(S(=O)(=O)N3CCCC3)cc2[N+](=O)[O-])CCCCC1", "Potency": "inconclusive: 14.6 µM [falling, partial curve, poor fit]"}
{"smiles": "Cc1cc(=O)[nH]c2cc(Cl)ccc12", "Potency": "inconclusive: 20.6 µM [falling, partial curve, poor fit]"}
{"smiles": "Cc1ccc(NC(=O)c2ccccc2)s1", "Potency": "inconclusive: 1.46 µM [activator, full curve, poor fit]"}
